Results deposited as PubChem BioAssay AID1259405 (NCATS, 2018).
Test: 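Silenced genes that increase secreted GFP made by CHO cells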 (primary screen). System: Chinese hamster CHO-K1 ovary cells with stable secreted eGFP expression. Knock-down reagent: single siRNA against mouse genes, 0.8 pmol siRNA per well (2 µl of 400 nM stock). Duration: 3 days. Detection: 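Percent of the per-plate non-targeting control median for intracellular GFP per well by laser scanning cytometry and for cell viability by ATP luminescence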. Scale: GFP, % of control: higher = more GFP per well, higher productivity; viability (ATP), % of control: higher = more viable cells (more ATP). Call rule: 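Called active when intracellular GFP, relative to negative control, is at or above 120%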.
Here is an unselected part of about 50,000 reagents. About 4,000 of them (8%) count as active. 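Mouse siRNA library applied to hamster cells; one well for each siRNA.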 Reagents against one gene are numbered here. No sequences are given here.

For Prim2 (DNA primase, p58 subunit) #1, how do the results read?
GFP, % of control: 111; viability (ATP), % of control: 124; activity call: inactive

How did the screen score Prim2 (DNA primase, p58 subunit) #2?
GFP, % of control: 96.6; viability (ATP), % of control: 108; activity call: inactive

With Or5b94 (olfactory receptor family 5 subfamily B member 94) #1, what does the deposit list?
GFP, % of control: 96.3; viability (ATP), % of control: 50.5; activity call: inactive

With Or5b94 (olfactory receptor family 5 subfamily B member 94) #2, what does the deposit list?
GFP, % of control: 82.3; viability (ATP), % of control: 43.4; activity call: inactive

With Or5b94 (olfactory receptor family 5 subfamily B member 94) #3, how do the results read?
GFP, % of control: 61.8; viability (ATP), % of control: 56.3; activity call: inactive

Which result is listed for Rnase11 (ribonuclease, RNase A family, 11 (non-active)) #1?
GFP, % of control: 90.9; viability (ATP), % of control: 119; activity call: inactive

How did the screen score Rnase11 (ribonuclease, RNase A family, 11 (non-active)) #2?
GFP, % of control: 107; viability (ATP), % of control: 46.9; activity call: inactive

Which result is listed for Rnase11 (ribonuclease, RNase A family, 11 (non-active)) #3?
GFP, % of control: 53.7; viability (ATP), % of control: 85.2; activity call: inactive

With Dhx57 (DExH-box helicase 57) #1, how do the results read?
GFP, % of control: 114; viability (ATP), % of control: 122; activity call: inactive

What is on record for Dhx57 (DExH-box helicase 57) #2?
GFP, % of control: 72.9; viability (ATP), % of control: 80.8; activity call: inactive

What did the screen give for Dhx57 (DExH-box helicase 57) #3?
GFP, % of control: 68; viability (ATP), % of control: 73.4; activity call: inactive

What did the screen give for Hebp1 (heme binding protein 1) #1?
GFP, % of control: 62.4; viability (ATP), % of control: 82.4; activity call: inactive

With Hebp1 (heme binding protein 1) #2, how do the results read?
GFP, % of control: 89.6; viability (ATP), % of control: 68.6; activity call: inactive

Which result is listed for Hebp1 (heme binding protein 1) #3?
GFP, % of control: 104; viability (ATP), % of control: 86.7; activity call: inactive

Which result is listed for Tnp1 (transition protein 1) #1?
GFP, % of control: 91.9; viability (ATP), % of control: 114; activity call: inactive

How did the screen score Tnp1 (transition protein 1) #2?
GFP, % of control: 87; viability (ATP), % of control: 122; activity call: inactive

For Tnp1 (transition protein 1) #3, what was measured?
GFP, % of control: 109; viability (ATP), % of control: 125; activity call: inactive

2 entries already listed, arranged by “viability (ATP), % of control”, ascending:
Or5b94 (olfactory receptor family 5 subfamily B member 94) #1: GFP, % of control = 96.3; viability (ATP), % of control = 50.5; activity call = inactive
Prim2 (DNA primase, p58 subunit) #2: GFP, % of control = 96.6; viability (ATP), % of control = 108; activity call = inactive
